Measured values as given in article PMC10342533, “Novel Tetrazole Derivatives Targeting Tubulin Endowed with Antiproliferative Activity against Glioblastoma Cells” (International Journal of Molecular Sciences, 2023).
Where two headings read alike, the source gives them in different places.

Assays:
[1] = test system: HeLa (cervix epithelioid carcinoma); experiment: Cell growth inhibition, MTT assay, HeLa; type: cell-based; conditions: Homo sapiens, read-out: IC50 HeLa
Method: (§1) The ability of the synthesized compounds to inhibit the cell proliferation of human cancer cell lines was assayed by measuring cell viability through the use of the MTT method 72 h after treatment. For this purpose, representative cell lines of the most frequent kinds of cancer were selected, including the following: HeLa (cervix epithelioid carcinoma), MCF7 (breast adenocarcinoma), U87 MG (glioblastoma), T98G (temozolomide resistant glioblastoma), HepG2 (hepatocellular carcinoma), HCT8 (colorectal carcinoma), and HT-29 (colon adenocarcinoma).
(§2) The cell lines were obtained from ATTC (Manassas, VA, USA). […] The cells were periodically tested for Mycoplasma infection by using a MycoAlert kit (Lonza, Norwest, Australia), and only Mycoplasma-free cells were used in the experiments.
(§3) Then, every compound was added (10 µL/well) to a final concentration of 10 µM. Untreated cells were used as negative controls. The antiproliferative activity of compounds was measured 72 h after drug exposure through the MTT assay. […] For this purpose, compounds were used at different concentrations, ranging from 10^−10 to 10^−2 M. Measurements were performed in triplicate, and each experiment was repeated three times. The IC50 values were determined using Origin software (version 9.6, OriginLab, Washington, DC, USA).

[2] = test system: U87 MG (glioblastoma); experiment: Cell growth inhibition, MTT assay, U87 MG; type: cell-based; conditions: Homo sapiens, U-87 MG, read-out: IC50 U87 MG
Method: as §1, §2, §3

[3] = test system: T98G (temozolomide resistant glioblastoma); experiment: Cell growth inhibition, MTT assay, T98G; type: cell-based; conditions: Homo sapiens, read-out: IC50 T98G
Method: as §1, §2, §3

[4] = test system: HepG2 (hepatocellular carcinoma); experiment: Cell growth inhibition, MTT assay, HepG2; type: cell-based; conditions: Homo sapiens, HepG2, 72 h, read-out: IC50 HepG2
Method: as §1, §2, §3

[5] = test system: HCT8 (colorectal carcinoma); experiment: Cell growth inhibition, MTT assay, HCT8; type: cell-based; conditions: Homo sapiens, HCT-8, 72 h, read-out: IC50 HCT8
Method: as §1, §2, §3

[6] = test system: HT-29 (colon adenocarcinoma); experiment: Cell growth inhibition, MTT assay, HT-29, without or with verapamil; type: cell-based, human
Method: as §1
Multidrug resistance (MDR) proteins, especially P-glycoprotein (P-gp), are often involved in resistance mechanisms affecting tubulin-binding drugs that are frequently related to the failure of cancer therapies. […] These pumps are also part of the blood–brain barrier.
as §2, §3

## COc1cc2c(c(OC)c1OC)-c1ccc(OC)c(=O)cc1[C@@H](NC(C)=O)CC2 [Colchicine, colchicine, reference compound]
[1]; 72 h
  IC50: 9 nM
[1]
  IC50: 9.4 ± 0.1 nM
[2]; 72 h
  IC50: 31 nM
[2]
  IC50: 31.2 ± 0.2 nM
[3]; 72 h
  IC50: 37 nM
[3]
  IC50: 37.2 ± 0.1 nM
[4]
  IC50: 29 nM
[5]
  IC50: 291 nM
[6]; Homo sapiens, HT-29, 72 h, read-out: IC50 HT-29
  IC50: 375 nM
[6]; Homo sapiens, HT-29, read-out: IC50 HT-29
  IC50: 375 ± 4 nM
[6]; read-out: IC50 HT-29*, MTT, mean ± SD, Table S1, in the presence of verapamil (10 µM)
  IC50: 302 ± 3.1 nM
